Source: paper PMC6100580
Results are given in words; binding and its absence hold for the method and conditions named. In cells and extracts the contact can be indirect. Tags and fused reporters may be left off the sequences shown.

Legend:
[1] = molecular target: Flag-tagged HBV middle S (hepatitis B virus); experiment: co-IP; 293 T cells co-transfected with HA-TRIM14 (WT or mutants) and a Flag-tagged HBV protein, collected 40 h later; lysis in 50 mM Tris-HCl pH 8.0, 150 mM NaCl, 1% NP-40; ANTI-FLAG M2 Affinity Gel overnight; immunoblot
[2] = molecular target: Flag-tagged HBV small S (hepatitis B virus); experiment: as above

B1: HA-TRIM14 (protein, UniProt Q14142 1-442)
chain: MAGAATGSRTPGRSELVEGCGWRCPEHGDRVAELFCRRCRRCVCALCPVLGAHRGHPVGLALEAAVHVQKLSQECLKQLAIKKQQHIDNITQIEDATEKLKANAESSKTWLKGKFTELRLLLDEEEALAKKFIDKNTQLTLQVYREQADSCREQLDIMNDLSNRVWSISQEPDPVQRLQAYTATEQEMQQQMSLGELCHPVPLSFEPVKSFFKGLVEAVESTLQTPLDIRLKESINCQLSDPSSTKPGTLLKTSPSPERSLLLKYARTPTLDPDTMHARLRLSADRLTVRCGLLGSLGPVPVLRFDALWQVLARDCFATGRHYWEVDVQEAGAGWWVGAAYASLRRRGASAAARLGCNRQSWCLKRYDLEYWAFHDGQRSRLRPRDDLDRLGVFLDYEAGVLAFYDVTGGMSHLHTFRATFQEPLYPALRLWEGAISIPRLP
binding [1]: no binding
binding [2]: no binding
